Reference: patent publication US20200360400A1, “COMPOSITIONS AND METHODS FOR THE TREATMENT OF ADDICTION, PSYCHIATRIC DISORDERS, AND NEURODEGENERATIVE DISEASE” (Embera NeuroTherapeutics, Inc., priority 2017, published 2020)
Some entries share one result that the patent states for a list of compounds.

Tested on: adult male Wistar rats
Assay: Intravenous cocaine self-administration under a multiple, alternating schedule of food reinforcement and cocaine self-administration
Format: in vivo, rat
Conditions: high dose alone, FIG. 1B

Structure (SMILES): CC(C)(C(=O)c1cccnc1)c1cccnc1 [metyrapone]
- cocaine self-administration as percentage of baseline self-administration: less than 50%
